In article PMC11742405:

Target: PRR33-Turbo-ID (mouse)
Assay: proximity labelling; Turbo-ID-MS: C2C12 about 48 h after Ad-Prr33-TurboID infection, biotin 400 uM for 15 min, streptavidin magnetic beads, SDS-PAGE, mass spectrometry

binding: binds
B1: ZYX (Zyxin) (protein, UniProt Q62523 1-564)
chain: MAAPRPPPAISVSVSAPAFYAPQKKFAPVVAPKPKVNPFRPGDSEPPVAAGAQRAQMGRVGEIPPPPPEDFPLPPPPLIGEGDDSEGALGGAFPPPPPPMIEEPFPPAPLEEDIFPSPPPPLEEEGGPEAPTQLPPQPREKVCSIDLEIDSLSSLLDDMTKNDPFKARVSSGYVPPPVATPFVPKPSTKPAPGGTAPLPPWKTPSSSQPPPQPQAKPQVQLHVQPQAKPHVQPQPVSSANTQPRGPLSQAPTPAPKFAPVAPKFTPVVSKFSPGAPSGPGPQPNQKMVPPDAPSSVSTGSPQPPSFTYAQQKEKPLVQEKQHPQPPPAQNQNQVRSPGGPGPLTLKEVEELEQLTQQLMQDMEHPQRQSVAVNESCGKCNQPLARAQPAVRALGQLFHITCFTCHQCQQQLQGQQFYSLEGAPYCEGCYTDTLEKCNTCGQPITDRMLRATGKAYHPQCFTCVVCACPLEGTSFIVDQANQPHCVPDYHKQYAPRCSVCSEPIMPEPGRDETVRVVALDKNFHMKCYKCEDCGKPLSIEADDNGCFPLDGHVLCRKCHSARAQT

These are yes or no findings as the source states them, for the method shown. In cells and extracts the contact can be indirect. These calls come from enrichment with a bait or labelling near it, and not all partners need be listed.
